This note sets out measurements from paper doi:10.1101/2020.04.16.001255.

No constants are given. Whether binding was seen depends on the method and setting. Binding seen in cells or lysates may run through a third protein. Some binding calls cover weakened binding; strength is not graded here.

One test concerns the target p53-EGFP (UniProt P04637). Description: co-IP.
A further test addresses TIP60-HA (UniProt Q92993). Description: co-IP.

Consider TIP60-HA (from UniProt Q92993 1-513), for which the binding result in the test with p53-EGFP was “binds”.

Regarding p53-EGFP (from UniProt P04637 1-393), in the test with TIP60-HA, the binding entry was “binds”.
